# Source: PubChem BioAssay AID493014 (National Center for Advancing Translational Sciences (NCATS), 2011)
# The list shows a part of the results. These are further read-outs of the screen, such as a control signal, another cell line or another target. No call is given for them. Compounds called inactive in the main read-out are mostly missing here. Words in brackets tell the shape of the fitted curve; partial curves, single points and poor fits give uncertain potencies.
# Assay: qHTS Assay to Find Inhibitors of Chronic Active B-Cell Receptor Signaling
# Conditions: ABC-DLBCL IkBa-CBG/CBR reporter, luminescence ratio (green luciferase fused to IkBa over red control in TMD8 lymphoma cells), 4 h; measured here: CBR red luminescence, cell number
# Source text: NIH Molecular Libraries Probe Production Network [MLPCN] NIH Chemical Genomics Center [NCGC] MLPCN Grant: 1 R03 DA031086-01A1 PI Name: Dr. R. Eric Davis NCGC Assay Overview: Diffuse large B-cell lymphoma (DLBCL) is the most common category of non-Hodgkin lymphoma, with ~20,000 new cases per year in the United States. DLBCL should be regarded as a collection of different neoplasms. Microarray gene expression analysis has defined two principal types of DLBCL, named for their similarity to normal B cell stages or activation states: a germinal center B-cell (GCB) type, and an activated B-cell (ABC) type. […] Following the addition of doxycycline to induce expression of the luciferases, the green luminescence in control cultures rises only slowly because the CBG fusion partner IkappaBalpha is targeted by IKK activity for rapid degradation. In contrast, green luminescence rises rapidly in the presence of proteasome inhibitors or IKK inhibitors. The rise in red luminescence of CBR is not affected by proteasome or IKK inhibitors, and serves as normalization for cell number and nonspecific effects. […]
# NCGC Assay Protocol Summary: Cells were seeded in 1536-well plates at 5000 cells/4uL in IMDM medium containing 0.5% FBS, w/o phenol red, 1% penicillin/streptomycin. […] The plates were measured on a ViewLux plate reader for green luminescence (540/20 nm filter) and red luminescence (618/8 nm filter). […]
row,Compound,AC50
1,CS(=O)(=O)C1=NSC2=NC(=O)/C(=C\c3ccc(OC(=O)c4ccco4)c(Br)c3)C(=N)N21,"1.26 µM [falling, full curve]"
2,CCc1nnc(NS(=O)(=O)c2ccc(N/C=C(\C=O)c3nc4cc(Cl)ccc4o3)cc2)s1,"35.5 µM [rising, partial curve, poor fit]"
